Test results: PubChem BioAssay AID1487 (National Center for Advancing Translational Sciences (NCATS), 2009)
Some of the results follow. These are further read-outs of the screen, such as a control signal, another cell line or another target. No call is given for them. Most of these compounds were active or inconclusive in the main read-out, so they are no random draw. Words in brackets tell the shape of the fitted curve; partial curves, single points and poor fits give uncertain potencies.

Assay: qHTS Assay for Modulators of Lamin A Splicing
Conditions: HeLa LMNA splicing GFP/RFP minigene ratio, 48 h
Excerpt: NCGC Assay Overview: Hutchinson-Gilford Progeria Syndrome (HGPS) is a pediatric premature aging disease caused by a spontaneous mutation in the lamin A/C (LMNA) gene. The mutation activates a cryptic splice site in the LMNA pre-mRNA which results in production of a pre-lamin A protein that cannot be processed properly. The mutant protein accumulates in the nucleus and negatively affects numerous cellular functions. Correction of the splicing defect in HGPS patient cells using a targeted oligonucleotide (exo11) leads to reversal of the cellular disease phenotypes. To identify small molecule modulators of aberrant LMNA splicing, a homogenous assay was constructed in HeLa cells that used a GFP containing minigene to report on correction of aberrant splicing in lamin A and a RFP (DsRed2) to report on cell viability, uniformity and nonspecific effects on the assay signal. This assay was adapted to laser-scanning microplate cytometry (Acumen, TTP Labtech) where miniaturization of the assay to a 1,536-well plate format was possible. References: Bowen, W. P.; Wylie, P. G. Application of Laser-Scanning Fluorescence Microplate Cytometry in High Content Screening. Assay Drug Dev Technol 2006;4:209-221. Scaffidi P, Misteli T. Reversal of the cellular phenotype in the premature aging disease Hutchinson-Gilford progeria syndrome. Nat.
NCGC Assay Protocol Summary: Reagents/Controls: Stable clones expressing DsRed2 and lamin A-EGFP were generated by Cell and Molecular Technologies in S3 HeLa cells. HeLa cells were prepared for the assay when they were 70-90% confluent. The cells were counted and resuspended in Opti-MEM I (no phenol red; Gibco), 2% FBS, 1% penicillin/ streptomycin (Gibco) at concentration of 120 cells/uL concentration. The suspension was passed through a Falcon basket filter with pore size 40um (Beckton Dickson). Control titrations: column […] 1536-well plate contained a sixteen point titration (1:2 dilutions) in duplicate of ancitabine (Sigma: A8598) beginning at 40 uM final concentration. Column 2 contained a sixteen point titration (1:2 dilutions) of cycloheximide beginning at 1.4 mM final concentration. Column 3 contained ancitabine at 40 uM and column 4 contained was the vehicle control (0.5% DMSO final concentration). Assay Steps: 5 uL of HeLa cells were plated in Aurora LoBase black clear bottom (cyclic-olefin polymer) 1536-well plates at a final density of 600 cells/well. Controls and library compounds were added with a 1536-well pin array using the Kalypsys pin-tool. The plates were then incubated for 48 hrs in a cell-culture incubator (37 °C; 5% CO2, 98% humidity). Following incubation the plates were read on the Acumen Explorer using the 488 nm laser. Data was collected on objects between 10 and 100 um in size. Cell objects were defined by a 15 um width x 10 um depth filter. The ratio of the total object intensity in PMT1 (500-530 nm emission; GFP) over PMT3 (575-640 nm emission; RFP) was calculated for analysis. Keywords: NIH Roadmap, MLSCN, MLI, MLSMR, qHTS, NCGC, lamin A, Progeria, RNA splicing.

[1] = measured here: RFP viability control channel
[2] = measured here: GFP splicing reporter channel

Compound	AC50 [1]	AC50 [2]
CC1CCCCC1NC(=O)CN1CCC(O)(c2ccc(F)cc2)CC1 (stereo unspecified)	35.5 µM [rising, single point]	
CCOC(=O)/C(N=Nc1c(C)n(C)n(-c2ccccc2)c1=O)=C(\C)O	1.78 µM [falling, full curve, poor fit]	
Cc1ccccc1CS(=O)(=O)CCC(=O)NCCN1CCN(c2cccc(Cl)c2)CC1	11.2 µM [rising, partial curve]	7.94 µM [rising, partial curve]
COc1cccc(CN(Cc2cccnc2)S(=O)(=O)c2ccc(-n3cnnn3)c(C)c2)c1	22.4 µM [rising, partial curve, poor fit]	
Cc1c(C(N)=O)sc2ncn(CC(=O)NCCc3ccccc3)c(=O)c12	15.8 µM [falling, partial curve]	11.2 µM [falling, partial curve, poor fit]
NC(=O)c1ccc(NC(=O)COC(=O)c2c3c(nc4ccccc24)/C(=C\c2cccs2)CCC3)cc1		5.62 µM [falling, single point]
O=C(N/N=C/c1cn(-c2cccs2)nc1-c1ccccc1)c1ccccc1Br	35.5 µM [rising, single point]	
CN(C(=O)COC(=O)c1cc(Br)c(Br)s1)C1CCS(=O)(=O)C1 (stereo unspecified)	31.6 µM [rising, single point]	35.5 µM [rising, single point]
COc1ccccc1C(=O)Nn1c(-c2cccs2)nc2ccccc2c1=O	35.5 µM [rising, single point]	
Cc1cnccc1CN(C)Cc1cn(C)nc1-c1ccc(Oc2ccccc2)cc1		3.55 µM [falling, full curve, poor fit]
COc1cccc(Cn2c(CNS(=O)(=O)c3ccc(C(C)(C)C)cc3)nc3cccnc32)c1		1.41 µM [falling, partial curve]
CS(=O)(=O)N(CC(=O)N1CCCC1)c1ccc(OCc2ccccc2)cc1	35.5 µM [rising, single point]	35.5 µM [rising, single point]
CCOC(=O)c1ccc(N=c2sc(C(=O)OC)cc(=O)n2Cc2ccco2)cc1		35.5 µM [falling, single point]
COc1ccc(C(=O)Cn2nnc(-c3ccc(N4CCOCC4)cc3)n2)cc1OC	10 µM [rising, partial curve]	
O=S1(=O)CC/C(=N\Nc2ccc(F)cc2)c2ccsc21	12.6 µM [rising, single point]	11.2 µM [rising, partial curve, poor fit]
COc1ccc(-c2nc(CNC(=O)Nc3ccccc3)c(C)o2)cc1	0.0562 µM [falling, full curve, poor fit]	
Cc1noc2ncnc(Sc3ccc(Cl)cc3)c12	20 µM [falling, partial curve, poor fit]	
C(=N\Nc1ncnc2ccccc12)/c1ccccc1	11.2 µM [falling, partial curve]	
Cc1ccc(NC(=O)CCn2ccc([N+](=O)[O-])n2)nc1	0.00891 µM [rising, full curve, poor fit]	0.00891 µM [rising, full curve, poor fit]
CCOC(=O)Cn1c(=O)n(CC2CCCO2)c2nc(-c3ccc(C(C)C)cc3)nc(C(N)=O)c21 (stereo unspecified)		0.158 µM [falling, full curve, poor fit]
NC(=O)CCCCC1CCSS1 (stereo unspecified)	0.0891 µM [rising, partial curve, poor fit]	1.26 µM [falling, single point]
COc1ccc(NCC(=O)N/N=C/c2c(C)nn(Cc3ccccc3)c2Cl)cc1	35.5 µM [rising, single point]	35.5 µM [rising, single point]
CCN(CCNC(=O)C1CCN(Cc2nc(-c3cccc(Cl)c3)oc2C)CC1)c1ccccc1	35.5 µM [rising, single point]	
Cc1cc(-n2c(C)cc(C(=O)CSc3ncnc4ccccc34)c2C)no1	0.447 µM [rising, full curve]	
COc1cccc(NC(=O)c2oc3ccccc3c2NC(=O)C2CC2)c1	11.2 µM [rising, partial curve, poor fit]	
CCOc1ccc(C(C)NC(=S)NC2CCCCC2)cc1OCC (stereo unspecified)	20 µM [rising, single point]	
O=C(Nc1ccc(Cl)cc1)Nc1ccc2c(c1)N1CCN=C1S2	12.6 µM [rising, partial curve, poor fit]	
CCCCOc1ccc(C(=O)C(CN2CCOCC2)c2ccccc2)cc1 (stereo unspecified)	25.1 µM [falling, single point]	35.5 µM [falling, single point]

Compound	AC50 [1]	AC50 [2]
CCC(=O)NC(c1ccco1)c1cc(Cl)c2cccnc2c1O (stereo unspecified)	3.16 µM [falling, full curve]	5.62 µM [falling, partial curve]
COC(=O)c1c(NC(=O)CN2CCC3(O)CCCCC3C2c2ccc(F)cc2)sc(C)c1C (stereo unspecified)	15.8 µM [rising, partial curve]	15.8 µM [rising, partial curve]
CC(/C=N/NC(=O)c1n[nH]c2c1CCC2)=C\c1ccccc1	1.78 µM [rising, full curve]	2.51 µM [rising, full curve]
Cn1c(SCCOc2ccc(Cl)cc2)nnc1-c1ccncc1	35.5 µM [rising, single point]	
CCC(C)(C)NC(=O)C(c1cccs1)N(C(=O)c1ccn[nH]1)c1cccc(OC)c1 (stereo unspecified)	0.158 µM [falling, full curve, poor fit]	
CCCCOc1ccc(C(C)NC(=O)C2CCCN(S(=O)(=O)CCC)C2)cc1 (stereo unspecified)	1.41 µM [falling, partial curve, poor fit]	
CC(C)CC(=O)/C(=C\c1ccc(Cl)cc1Cl)n1cncn1	31.6 µM [rising, single point]	12.6 µM [rising, single point]
CC1CCc2c(sc(NC(=O)CSc3nc4c(c(C(F)(F)F)n3)CCc3ccccc3-4)c2C(N)=O)C1 (stereo unspecified)	11.2 µM [rising, partial curve, poor fit]	
C=C(C)Cn1c(=O)c2c(nc3n2CCN3c2cccc(Cl)c2C)n(C)c1=O	28.2 µM [rising, single point]	
Cc1ccc(/C=C/C(=O)OCC(=O)NCCN2C(=O)CSC2=O)cc1	12.6 µM [rising, partial curve, poor fit]	10 µM [rising, partial curve, poor fit]
C=C1CC2C3CC[C@@]4(OCOC45COCO5)[C@@]3(C)C(O)CC2[C@@]2(C)CCC(=O)C=C12 (stereo partly specified)	20 µM [rising, partial curve]	
CC(=O)c1cc(-c2nc3ccccc3n2C)n(C)c1		35.5 µM [falling, single point]
CC(OC(=O)C1COc2ccccc2O1)C(=O)N(C)c1ccccc1 (stereo unspecified)	3.16 µM [rising, partial curve]	
CCCc1cc(-c2nc(-c3ccc(Br)cc3)cs2)ccn1	28.2 µM [rising, single point]	22.4 µM [rising, single point]
O=C(Nc1ccc2oc(-c3ccccc3F)nc2c1)c1ncn[nH]1	12.6 µM [rising, single point]	0.562 µM [rising, partial curve]
Cc1ccc2nc(NC(=O)C3CCN(S(=O)(=O)c4cnc[nH]4)CC3)sc2c1	35.5 µM [rising, single point]	35.5 µM [rising, single point]
Cc1cc(NC(=O)c2cccc(N3C(=O)CCC3=O)c2)no1	0.501 µM [falling, full curve, poor fit]	0.501 µM [falling, full curve, poor fit]
CSc1ccc(/C=C/C(=O)c2ccc(O)cc2)cc1	35.5 µM [falling, single point]	35.5 µM [falling, single point]
CCOC(=O)N1CCN(c2c(F)cc3[nH]c(=S)[nH]c3c2Br)CC1	10 µM [rising, partial curve]	
Cc1ccc(NC(=O)CSc2nnc(-c3ccco3)c(-c3ccco3)n2)cc1	12.6 µM [rising, partial curve, poor fit]	
COc1ccc(-c2nc(C)c(CCNS(=O)(=O)c3cc(C)c(C)cc3C)s2)cc1	20 µM [rising, single point]	
O=C(NCCc1ccccc1)c1nnc(Cc2cccc(F)c2)o1	17.8 µM [falling, partial curve, poor fit]	15.8 µM [falling, partial curve]
CCSc1ccc2nnc(-c3cccc(F)c3)n2n1	0.631 µM [falling, full curve]	
Cc1cccc(C)c1NC(=O)c1sccc1SCc1cccc(C(F)(F)F)c1	11.2 µM [falling, partial curve, poor fit]	
CCn1c(COc2ccccc2C)nnc1SCC(=O)NC1CCCC1		25.1 µM [rising, single point]
N#Cc1ccccc1Cn1cc(/C=C/[N+](=O)[O-])c2ccccc21	25.1 µM [falling, single point]	
COc1ccc(CCC(=O)Nc2ccc(C)c(S(=O)(=O)N(C)C)c2)cc1OC	3.16 µM [rising, full curve]	2.51 µM [rising, full curve]

Already shown: entries from further up.
Compound	AC50 [1]	AC50 [2]
CCC(C)(C)NC(=O)C(c1cccs1)N(C(=O)c1ccn[nH]1)c1cccc(OC)c1 (stereo unspecified)	0.158 µM [falling, full curve, poor fit]	
CCCCOc1ccc(C(C)NC(=O)C2CCCN(S(=O)(=O)CCC)C2)cc1 (stereo unspecified)	1.41 µM [falling, partial curve, poor fit]	
CC(C)CC(=O)/C(=C\c1ccc(Cl)cc1Cl)n1cncn1	31.6 µM [rising, single point]	12.6 µM [rising, single point]
CC1CCc2c(sc(NC(=O)CSc3nc4c(c(C(F)(F)F)n3)CCc3ccccc3-4)c2C(N)=O)C1 (stereo unspecified)	11.2 µM [rising, partial curve, poor fit]	
